The results in this text go back to doi:10.1101/2020.07.20.211417.

By UniProt entry, the sequences of proteins in these tests, tags left out.
UniProt P62993: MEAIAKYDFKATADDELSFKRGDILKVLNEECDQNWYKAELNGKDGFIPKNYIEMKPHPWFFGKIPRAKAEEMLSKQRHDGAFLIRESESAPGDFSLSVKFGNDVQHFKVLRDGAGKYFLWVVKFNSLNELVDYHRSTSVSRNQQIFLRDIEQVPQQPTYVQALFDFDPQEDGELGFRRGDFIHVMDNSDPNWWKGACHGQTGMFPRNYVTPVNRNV
UniProt O00459: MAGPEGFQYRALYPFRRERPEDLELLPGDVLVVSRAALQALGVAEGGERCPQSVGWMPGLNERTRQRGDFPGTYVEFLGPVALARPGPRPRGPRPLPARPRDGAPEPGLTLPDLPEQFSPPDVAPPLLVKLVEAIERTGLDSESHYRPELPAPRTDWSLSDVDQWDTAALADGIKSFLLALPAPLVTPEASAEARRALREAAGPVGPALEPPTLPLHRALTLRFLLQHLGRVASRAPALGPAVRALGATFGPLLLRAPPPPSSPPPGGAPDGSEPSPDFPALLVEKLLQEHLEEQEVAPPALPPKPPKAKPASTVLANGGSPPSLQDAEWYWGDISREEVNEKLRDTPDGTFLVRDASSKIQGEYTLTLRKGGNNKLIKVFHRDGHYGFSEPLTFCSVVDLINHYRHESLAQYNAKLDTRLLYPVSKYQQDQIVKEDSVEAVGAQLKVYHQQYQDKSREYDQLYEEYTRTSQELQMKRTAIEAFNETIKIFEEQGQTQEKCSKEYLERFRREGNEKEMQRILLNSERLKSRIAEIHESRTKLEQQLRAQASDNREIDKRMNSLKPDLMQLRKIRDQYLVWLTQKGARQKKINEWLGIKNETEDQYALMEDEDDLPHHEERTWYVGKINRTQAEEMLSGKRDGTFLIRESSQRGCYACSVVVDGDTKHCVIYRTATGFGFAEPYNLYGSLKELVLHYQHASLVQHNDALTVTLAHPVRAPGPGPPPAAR

No constants are given. Whether binding was seen depends on the method and setting. In cells and extracts the contact can be indirect. Some results given as binding are weak or reduced against the parent protein; the word gives no strength. For part of these data: Where a sequence is shown, tags or fusion partners need not be part of it.

The target in assay [1] is T1, Myc-tagged IRS4, tyrosine-phosphorylated by co-expressed FER-WT (UniProt O14654).
T1 sequence: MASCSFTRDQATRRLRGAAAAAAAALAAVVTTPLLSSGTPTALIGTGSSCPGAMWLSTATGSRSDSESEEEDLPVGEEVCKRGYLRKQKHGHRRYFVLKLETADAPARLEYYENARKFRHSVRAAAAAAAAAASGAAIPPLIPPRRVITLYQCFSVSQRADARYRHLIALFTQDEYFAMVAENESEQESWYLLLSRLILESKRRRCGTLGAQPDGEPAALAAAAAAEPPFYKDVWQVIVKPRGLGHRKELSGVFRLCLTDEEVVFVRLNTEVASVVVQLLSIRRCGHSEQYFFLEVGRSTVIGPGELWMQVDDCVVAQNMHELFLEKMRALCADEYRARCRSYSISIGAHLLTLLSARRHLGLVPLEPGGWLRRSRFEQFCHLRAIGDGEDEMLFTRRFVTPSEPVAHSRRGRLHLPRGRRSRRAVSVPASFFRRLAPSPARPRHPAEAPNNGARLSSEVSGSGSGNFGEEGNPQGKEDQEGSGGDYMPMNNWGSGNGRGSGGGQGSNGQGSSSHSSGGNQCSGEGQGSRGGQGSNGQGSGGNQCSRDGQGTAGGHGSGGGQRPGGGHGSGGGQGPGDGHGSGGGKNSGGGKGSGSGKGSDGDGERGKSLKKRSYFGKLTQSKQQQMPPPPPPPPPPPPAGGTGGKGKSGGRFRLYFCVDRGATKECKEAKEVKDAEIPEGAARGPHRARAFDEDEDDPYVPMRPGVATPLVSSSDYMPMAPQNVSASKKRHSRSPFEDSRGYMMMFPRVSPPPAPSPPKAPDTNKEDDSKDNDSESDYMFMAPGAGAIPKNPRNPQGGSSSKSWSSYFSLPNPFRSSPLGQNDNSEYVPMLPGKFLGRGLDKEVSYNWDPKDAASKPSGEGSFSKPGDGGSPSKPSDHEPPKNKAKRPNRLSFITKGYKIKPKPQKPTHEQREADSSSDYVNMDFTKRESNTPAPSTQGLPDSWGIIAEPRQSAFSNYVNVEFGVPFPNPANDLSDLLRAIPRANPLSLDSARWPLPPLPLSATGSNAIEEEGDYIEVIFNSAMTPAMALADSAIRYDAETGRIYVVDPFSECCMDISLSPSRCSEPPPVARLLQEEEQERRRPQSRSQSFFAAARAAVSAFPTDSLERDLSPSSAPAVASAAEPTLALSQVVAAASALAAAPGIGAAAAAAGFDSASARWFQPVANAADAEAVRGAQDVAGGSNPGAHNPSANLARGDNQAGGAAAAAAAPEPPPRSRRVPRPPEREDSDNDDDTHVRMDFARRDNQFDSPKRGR
Description: co-IP.

For assay [2], the target named is T2, IRS4, endogenous in OVCAR-5 cells (human (endogenous in OVCAR-5)) (UniProt O14654).
T2 sequence: T1 sequence
Description: co-IP.

Consider GRB2 (from UniProt P62993 1-217), for which the binding entry in assay [1] is “binds”. Consider “PIK3R2/p85β, the regulatory subunit of PI-3K (from UniProt O00459 1-728)”, for which the binding result in assay [1] and in assay [2] was “binds” throughout.
